Test results published in patent publication US20200283734A1, “REPROGRAMMING OF A DIFFERENTIATED CELL TO AN UNDIFFERENTIATED CELL USING EXOSOME” (AGENCY FOR SCIENCE, TECHNOLOGY AND RESEARCH, priority 2017, published 2020).
At least one compound was matched to its structure with a doubt left.

Columns and labels:
MCF7 EX-iCSCs = assay: Drug resistance assay (Alamar Blue cell viability), MCF7; format: cell-based; conditions: MCF7 EX-iCSCs (FIG. 17)
Method: (§1) H7-exosome treated and non-treated A431 and MCF7 cancer cells were seeded at a density of 3×10^3 cells per well in a 96-well plate, in their respective medium. The anticancer drugs, cisplatin, doxorubicin and sunitinib were then added in concentration series ranging from 0.1 to 1000, 0.001 to 10, and 0.1 to 1000 μg/mL, respectively. After time periods of 24, 48 and 72 hours, the cells were subjected to an Alamar Blue assay for cell viability.
(§2) Drug resistance has been associated with stem cell-like traits in cancer cells. The MCF7 and A431 cell lines were treated with exosomes to induce EX-iCSCs, following which they were subjected to viability (Alamar Blue) assays (FIG. 16, FIG. 17).

A431 EX-iCSCs = assay: Drug resistance assay (Alamar Blue cell viability), A431; format: cell-based
Method: as §1, §2

CCN(CC)CCNC(=O)c1c(C)[nH]c(/C=C2\C(=O)Nc3ccc(F)cc32)c1C [Sunitinib, sunitinib]
drug resistance characteristics of EX-iCSCs towards cancer drugs (MCF7 EX-iCSCs): showed drug resistance characteristics
viability of exosome-treated cells under drug compared to non-treated cells (A431 EX-iCSCs; A431, H7-exosome treated, all time points (24, 48 and 72 hours)): significantly higher viability
drug resistance characteristics of EX-iCSCs towards cancer drugs (A431 EX-iCSCs; A431 EX-iCSCs (FIG. 16)): showed drug resistance characteristics
